Laboratory results published in PubChem BioAssay AID540256 (National Center for Advancing Translational Sciences (NCATS), 2011).
Among all 300,000 compounds or so, about 3,700 (1.2%) were called active. Inconclusive results, whose numbers are uncertain, are shown with a selection of clear calls. The call rests on the fitted dose curve; tested in HEK293 cells. A potency beside an inconclusive call is a rough fit, not a confirmed value.

Assay: qHTS for Inhibitors of binding or entry into cells for Lassa Virus; further: nearly all actives have a fitted effect of over 50% in size
Details: Lassa virus pseudotype entry inhibition, cell reporter; activity change, negative = inhibition: at 37.9 µM (top of the series) unless noted
On the % scale 0 is the no-effect control and ±100 the full control effect; potency means the concentration at half of the fitted maximal effect.

Row | SMILES | Potency | activity change, negative = inhibition
1 | O=C(Nc1ccccc1)Nc1ccc2ocnc2c1 | inconclusive: 1.26 µM [inhibitor, single point] | 
2 | CC1CCN(C(=O)Nc2ccc3nsnc3c2)CC1 |  | inactive: 2%
3 | COc1ccc2c(C(=O)CN3CCN(c4ccccc4)CC3)c[nH]c2c1 | inconclusive: 5.17 µM [inhibitor, partial curve, poor fit] | 
4 | COc1cc(C(=O)NCc2ccc3c(c2)cc(C)n3C)cc(OC)c1OC | inconclusive: 35.5 µM [inhibitor, single point] | 
5 | O=C(CNC(=O)c1ccco1)OCc1ccc(C(=O)c2ccccc2)cc1 | inconclusive: 1.26 µM [inhibitor, single point] | 
6 | CC1CCCN(CCOCCOc2ccc(Cl)cc2Br)C1 (stereo not drawn) | inconclusive: 20.6 µM [inhibitor, single point] | 
7 | C=CCn1c(O)c(C(C)=NCCc2ccccc2)c(=O)[nH]c1=O |  | inactive: -4.93%
8 | COc1ccc(C(CNC(=O)CN2C(=O)NC3(CC(C)CC(C)(C)C3)C2=O)N2CCOCC2)cc1 (stereo not drawn) | inconclusive: 2.91 µM [activator, full curve, poor fit] | 
9 | Cc1nn(C)c(C)c1CNC(=O)c1cc2n(n1)C(C(F)(F)F)CC(c1cccs1)N2 (stereo not drawn) |  | inactive: -13.8%
10 | COC(/C(=N/O)c1ccc(Cl)cc1)c1ccccc1 (stereo not drawn) | inconclusive: 35.5 µM [inhibitor, single point] | 
11 | COc1ccc(N2C(=O)C3C(C2=O)C(C(=O)c2ccc(Cl)cc2)N2CCCC32)cc1 (stereo not drawn) |  | inactive: 7.85%
12 | CC(C)(CNC(=S)NCCc1ccccc1)CNC(=S)NCCc1ccccc1 | inconclusive: 14.6 µM [inhibitor, single point] | 
13 | COc1ccc(OC)c(S(=O)(=O)n2ccnc2C)c1 | inconclusive: 1.3 µM [inhibitor, partial curve] | 
14 | c1ccc(C[n+]2cccc3c4ccccc4ccc32)cc1 | active: 7.08 µM | 
15 | O=C(COC(=O)C12CC3CC(CC(C3)C1)C2)Nc1ccc(OC(F)F)cc1 | inconclusive: 16.4 µM [inhibitor, partial curve, poor fit] | 
16 | OC1CCN(Cc2cn(Cc3ccccc3)nc2-c2cc3ccccc3o2)CC1 |  | inactive: -1.26%
17 | Cc1cccc(-n2nnnc2SCn2nnc3ccccc3c2=O)c1 |  | inactive: 1.71%
18 | [O-]/C(=C(\C(=S)Nc1ccccc1F)[n+]1ccccc1)c1ccc(-c2ccccc2)cc1 |  | inactive: 3.28%
19 | CCOc1ccc(OCC(=O)N2CCOCC2)cc1 |  | inactive: 0.114%
20 | O=C(ON=C1CCSCC1)c1ccccc1 | inconclusive: 0.891 µM [inhibitor, partial curve] | 
21 | CC(NC(=O)c1cccc(S(=O)(=O)N2CCN(C)CC2)c1)C1CC2CCC1C2 (stereo not drawn) | inconclusive: 35.5 µM [inhibitor, single point] | 
22 | CCCN(CCC)CCCNC(=O)c1cc2c(=O)oc3ccc(C)cc3c2s1 | inconclusive: 6.31 µM [inhibitor, single point] | 
23 | O=C(CCc1nc2ccccc2c(=O)[nH]1)N1CCN(S(=O)(=O)c2ccc(Cl)c(C(F)(F)F)c2)CC1 |  | inactive: 1.83%

4 entries from above, arranged by length of the SMILES, low to high:
Row | SMILES | Potency | activity change, negative = inhibition
2 | CC1CCN(C(=O)Nc2ccc3nsnc3c2)CC1 |  | inactive: 2%
6 | CC1CCCN(CCOCCOc2ccc(Cl)cc2Br)C1 (stereo not drawn) | inconclusive: 20.6 µM [inhibitor, single point] | 
7 | C=CCn1c(O)c(C(C)=NCCc2ccccc2)c(=O)[nH]c1=O |  | inactive: -4.93%
4 | COc1cc(C(=O)NCc2ccc3c(c2)cc(C)n3C)cc(OC)c1OC | inconclusive: 35.5 µM [inhibitor, single point] | 

(cont.)

Row | SMILES | Potency | activity change, negative = inhibition
24 | COc1cccc(CNC(=O)Cn2c(=O)oc3cc(S(=O)(=O)N4CCCC4)ccc32)c1 | inconclusive: 6.31 µM [inhibitor, single point] | 
25 | Cc1ccc(-c2ccc(=O)n(Cc3ccc(F)cc3)n2)cc1 |  | inactive: -2.16% [at 46.1 µM]
26 | COCCCN(C(=O)CSCc1c(C)noc1C)c1c(N)n(Cc2ccccc2)c(=O)[nH]c1=O | inconclusive: 31.6 µM [activator, single point] | 
27 | O=C(CCc1nc2ccccc2c(=O)[nH]1)NCCN1C(=O)S/C(=C\c2ccccc2Cl)C1=O | inconclusive: 1.12 µM [inhibitor, single point] | 
28 | Cc1cc2ccccn2c1C(=O)c1cccc(S(=O)(=O)N2CCOCC2)c1 | inconclusive: 35.5 µM [inhibitor, single point] | 
29 | Cc1cccc(N2C(=O)C(CC(=O)Nc3cccc(F)c3)N(Cc3cccs3)C2=O)c1 (stereo not drawn) |  | inactive: 4.31% [at 46.1 µM]
30 | C=CCc1ccccc1OCCOc1ccc([N+](=O)[O-])cc1/C=N/NC(N)=O |  | inactive: 2.08%
31 | Cc1ccc(-n2nc(C)c(NS(=O)(=O)c3ccccc3)c2C)cc1C | inconclusive: 8.2 µM [inhibitor, partial curve, poor fit] | 
32 | COCCNC(=O)C(c1ccc(C)o1)N(Cc1cccs1)C(=O)c1snc(C(N)=O)c1N (stereo not drawn) | inconclusive: 0.58 µM [activator, full curve, poor fit] | 
33 | CC1CN(C(=O)CSc2nnc(-c3ccc(Cl)cc3)n2C)CC(C)O1 (stereo not drawn) |  | inactive: 1.04%
34 | CN(C)CCN(C)C1CN(Cc2ccc([N+](=O)[O-])cc2)S(=O)(=O)C1 (stereo not drawn) | inconclusive: 3.96 µM [activator, full curve] | 
35 | CCOc1ccc(NC(=O)CN(c2ccc([N+](=O)[O-])cc2)S(=O)(=O)c2ccccc2)cc1 | inconclusive: 9.2 µM [inhibitor, partial curve] | 
36 | CCC12CN3CC(C)(CN(C1)C3c1ccc(O)cc1O)C2=O (stereo not drawn) |  | inactive: -8.74% [at 46.1 µM]
37 | O=C(NCc1ccccc1Cl)C1CCN(S(=O)(=O)c2ccc3c(c2)CCCN3C(=O)C2CCC2)CC1 | inconclusive: 28.2 µM [inhibitor, single point] | 
38 | Cc1cc(=O)n2[nH]c(SCc3c(F)cccc3Cl)nc2n1 | inconclusive: 1.26 µM [inhibitor, partial curve, poor fit] | 
39 | COc1ccc(Nc2c(-c3ccc(Cl)cc3)nc3cnccn23)cc1OC | inconclusive: 35.5 µM [inhibitor, single point] | 
40 | C(=N\Nc1nncc2ccccc12)/c1ccccc1 | inconclusive: 3.98 µM [activator, partial curve, poor fit] | 
41 | O=C(Nc1cccc(C(F)(F)F)c1)C1CCN(c2nnc(-n3cccc3)s2)CC1 | inconclusive: 1 µM [inhibitor, full curve, poor fit] | 
42 | CC(C)(O)CN(C(=O)c1ccccc1)C1CCCCC1 |  | inactive: -1.03%
43 | O=C(O)CC(NS(=O)(=O)c1ccc(Cl)s1)c1ccccc1 (stereo not drawn) | inconclusive: 35.5 µM [activator, single point] | 
44 | Cc1ccc(N2CCN(C(=O)c3cc(COc4c(C)cccc4C)on3)CC2)c(C)c1 |  | inactive: -0.0637%
45 | CC(=O)C1=C(C)N(Cc2ccccc2)C(=O)N[C@@H]1c1cccc(C(F)(F)F)c1 |  | inactive: -1.57%
46 | Cc1ccc(C(=O)ONc2ccc(N=O)cc2)cc1 |  | inactive: 6.85%

Row | SMILES | Potency | activity change, negative = inhibition
47 | COc1ccc(S(=O)(=O)N2CCN(CC(=O)N3c4ccccc4CC3C)CC2)cc1OC (stereo not drawn) | inconclusive: 0.316 µM [inhibitor, partial curve, poor fit] | 
48 | Cc1cc(C)c2c(=O)[nH]c(SCC(=O)c3ccc(F)c(C)c3)nc2n1 | inconclusive: 10 µM [activator, partial curve, poor fit] | 
49 | COc1cc2c(cc1OC)CN(C(=O)Cc1c(F)cccc1Cl)CC2 |  | inactive: -10%
50 | O=C(Cc1ccc(Cl)cc1)Nc1ccc(N2CCN(C(=O)c3ccco3)CC2)c(Cl)c1 | inconclusive: 35.5 µM [inhibitor, single point] | 
51 | Cc1nc2sccn2c1-c1nc(-c2cc3ccccc3o2)cs1 |  | inactive: 11.6%
52 | O=C(O)CC12CC3CC(C1)CC(n1ncc(NCc4ccccc4)c(Cl)c1=O)(C3)C2 | inconclusive: 3.16 µM [activator, partial curve, poor fit] | 
53 | CCCCn1cnc(C(=O)OCC)c1N | inconclusive: 0.0065 µM [inhibitor, full curve, poor fit] | 
54 | O=C(/C=C/c1ccccc1)NCCN1CCOCC1 |  | inactive: 14.6%
55 | Cc1noc(C)c1CSc1nc2ccccc2s1 | inconclusive: 5.01 µM [activator, full curve] | 
56 | COc1cccc(N=Nc2c(N)[nH][nH]c2=O)c1 | inconclusive: 1.84 µM [inhibitor, partial curve, poor fit] | 
57 | O=C(Cc1csc2ccccc12)NCc1cccc(Br)c1 |  | inactive: 9.09% [at 46.1 µM]
58 | COc1cc(-c2cc(C(=O)Nc3ccc(C)c(S(=O)(=O)N4CCOCC4)c3)c3ccccc3n2)cc(OC)c1OC | inconclusive: 20 µM [inhibitor, single point] | 
59 | CCn1c(Cc2ccccc2)nnc1SCC(=O)Nc1ccc(OC)cc1 | inconclusive: 20 µM [activator, single point] | 
60 | CCC(C)NS(=O)(=O)c1ccc(S(=O)(=O)N(CC(=O)Nc2ccccc2)CC2CCCO2)cc1 (stereo not drawn) | inconclusive: 29.1 µM [inhibitor, single point] | 
61 | CCCCn1c(N)c(N(CC)C(=O)c2cccc(C)c2)c(=O)[nH]c1=O | inconclusive: 6.31 µM [inhibitor, single point] | 
62 | COc1ccc(/C=C2\CCCC3C2=NN(C(=O)CSc2ncn[nH]2)C3c2ccc(OC)cc2)cc1 (stereo not drawn) | inconclusive: 25.9 µM [inhibitor, single point] | 
63 | N#CC1(c2ccccc2)CCCN1C(=O)c1ccc(Br)o1 (stereo not drawn) |  | inactive: 0.696%
64 | O=C(NN=C1C[C@@H](O)[C@H](O)[C@H]2[C@@H]3C(=O)N(Cc4ccc5c(c4)OCO5)C(=O)[C@@H]3CC[C@H]12)OCc1ccccc1 | inconclusive: 1.19 µM [inhibitor, single point] | 
65 | O=C(Cn1ncc(N2CCOCC2)c(Cl)c1=O)c1ccc(Cl)cc1 | inconclusive: 20 µM [inhibitor, partial curve, poor fit] | 
66 | Cc1cc(C)c(S(=O)(=O)N2C=CC(C(F)(F)F)=NCC2)c(C)c1 | inconclusive: 32.6 µM [inhibitor, partial curve, poor fit] | 
67 | NC(=O)CCC1NC(=S)N(Cc2ccccc2)C1=O (stereo not drawn) | inconclusive: 0.794 µM [inhibitor, single point] | 
68 | CCOC(=O)c1ccc(NC(=O)C2CCCN(c3cnccn3)C2)cc1 (stereo not drawn) | inconclusive: 0.631 µM [activator, full curve, poor fit] | 
